From the supplement of paper PMC8326762, “A Small Molecule Inhibitor of Pex3–Pex19 Interaction Disrupts Glycosome Biogenesis and Causes Lethality in Trypanosoma brucei” (Frontiers in Cell and Developmental Biology, 2021) come the findings set out here.

Structures can show the parent of a compound that is named as a salt. This is one part of the list. The data scatter; read single values as rough.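 Optical density at 600 nm measured yeast growth. Because the two-hybrid strains grew without histidine, growth required Pex3–Pex19 binding. Trypanosome selectivity meant a compound inhibited the trypanosome-pair strain's growth by more than 65% but the human-pair strain's by less than 65%.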

For assay [1], the system named is Saccharomyces cerevisiae HF7c pdr5Δ. The assay can be described thus: general growth inhibition of yeast HF7c pdr5Δ in -Leu -Trp medium, relative to DMSO; higher = stronger general growth inhibition. The following applies: 100 µM; 24 h.
The subject of assay [2] is human PEX3-PEX19 interaction (yeast two-hybrid). The assay can be described thus: growth inhibition of yeast two-hybrid strain reporting HsPex3-HsPex19 interaction, relative to DMSO; higher = stronger inhibition of human Pex3-Pex19 interaction / growth. The settings on record: 100 µM; 24 h; 3-aminotriazole 10 mM.
In assay [3] the test system is T. brucei Pex3-Pex19 interaction (yeast two-hybrid). The assay can be described thus: growth inhibition of yeast two-hybrid strain reporting TbPex3-TbPex19 interaction, relative to DMSO; higher = stronger inhibition of T. brucei Pex3-Pex19 interaction / growth. The following applies: 100 µM; 24 h.

For `CN1[C@@H]2CC[C@H]1C[C@@H](OC(=O)[C@H](CO)c1ccccc1)C2` [L-Hyoscyamine], the general growth inhibition in assay [1] was 26.6%. For the same molecule, the figures for the growth inhibition in assay [2] and in assay [3] were 34.8% and 55.2%, respectively.
On the same counts, the results for `CC(C)N(CCC(C(N)=O)(c1ccccc1)c1ccccn1)C(C)C` (configuration not stated) [Disopyramide phosphate] are 32.4%, 32.2% and 53.1%.
On the same counts, the results for `CN[C@@H]1C[C@@H](c2ccc(Cl)c(Cl)c2)c2ccccc21` [Indatraline hydrochloride] are 35.4%, 35.7% and 61.1%.
In the same order, the values of `NC(=O)CI` [Iodoacetamide] are 87.1%, 81.7% and 79.3%.
Molecule `CC(N)Cc1cccc(C(F)(F)F)c1` (single isomer, unassigned; (+)) [(+)-Norfenfluramine hydrochloride] displayed a general growth inhibition in assay [1] of 52.3%. In addition, the growth inhibition turned out to be 49.1% in assay [2] and 70% in assay [3].
As for `C[N+]1(C)[C@@H]2C[C@@H](OC(=O)[C@H](CO)c3ccccc3)C[C@H]1[C@@H]1O[C@@H]12` [(-)-Scopolamine methyl bromide], the general growth inhibition in assay [1] stood at 39.8%. Moreover, the growth inhibition in assay [2] is 45%; in assay [3], 63.8%.
`Clc1ccc(N2CCN(Cc3c[nH]c4ncccc34)CC2)cc1` [L-745,870 hydrochloride] displayed a general growth inhibition in assay [1] of 27.5%. Besides, the growth inhibition in assay [2] was determined as 24.9%; in assay [3], 53%.
In the same order, the values of `C[N+]1(C)[C@@H]2CC[C@H]1C[C@@H](OC(=O)C(CO)c1ccccc1)C2` (some centres not stated) [Atropine methyl bromide] are 52.7%, 48.2% and 61.3%.
On the same counts, the results for `Clc1cc(I)cc(Cl)c1NC1=NCCN1` [p-Iodoclonidine hydrochloride] are 44.3%, 42.9% and 67.9%.
In the same order, the values of `CCCN(CCC)CCc1ccc(O)c(O)c1` [Dipropyldopamine hydrobromide] are 24.1%, 22.5% and 59.5%.
`CNCC(O)c1ccc(O)cc1` (racemic) [(±)-Synephrine] gave a general growth inhibition in assay [1] of 54.1%. The results for the growth inhibition in assay [2] and in assay [3] were 44% and 67.6%, respectively.
In the same order, the values of `CC(C)NC(C)Cc1ccc(I)cc1` (configuration not stated) [Iofetamine hydrochloride] are 43.5%, 41.8% and 65.6%.
On the same counts, the results for `CC(C)Oc1cccnc1N(C)C1CCN(Cc2ccccc2)CC1` are 12.9%, 10.7% and 39.6%.
In the same order, the values of `CP(=O)(O)C1=CCNCC1` are 50.7%, 51.5% and 55.5%.
Consider `CCCN1CCC[C@@H](c2cccc(O)c2)C1` [S(-)-3PPP hydrochloride], for which, in assay [1], the general growth inhibition amounted to 58.7%. The growth inhibition in assay [2] stood at 47.4%; in assay [3] it was 68%.
In the same order, the values of `Cc1ncc(CNC(=O)N(CCCl)N=O)c(N)n1` [Nimustine hydrochloride] are 55%, 37% and 60.7%.
In the same order, the values of `CC(N)c1cccc(Cl)c1Cl` (racemic) [(±)-2,3-Dichloro-alpha-methylbenzylamine hydrochloride] are 23.5%, 30.7% and 51.9%.
In the same order, the values of `O=C(O)[C@@H]1CCN1` [L-azetidine-2-carboxylic acid] are 48.9%, 51.5% and 62.4%.
The molecule `O=C1CC[C@@]2(O)[C@H]3Cc4ccc(O)c5c4[C@@]2(CCN3CC2CC2)[C@H]1O5` [Naltrexone hydrochloride] gave a general growth inhibition in assay [1] of 48.4%. The growth inhibition worked out at 43.9% in assay [2] and 64.6% in assay [3].
In the same order, the values of `CC[C@@H](C(N)=O)N1CCCC1=O` [Levetiracetam] are 54.8%, 49.8% and 69.2%.
On the same counts, the results for `C[C@@H]1O[C@H](C[N+](C)(C)C)C[C@H]1O` (racemic) [(±)-Muscarine chloride] are 41.8%, 48.1% and 54.7%.
With `C[N+](C)(C)CCCCCCCCCC[N+](C)(C)C` [Decamethonium dibromide], the general growth inhibition in assay [1] turned out to be 17.3%. The growth inhibition was 9.37% in assay [2] and 59% in assay [3].
In turn, `CN1C[C@H](C(=O)N[C@]2(C)O[C@@]3(O)[C@@H]4CCCN4C(=O)[C@H](Cc4ccccc4)N3C2=O)C[C@@H]2c3cccc4[nH]cc(c34)C[C@H]21` [Dihydroergotamine methanesulfonate] returned a general growth inhibition in assay [1] of 37.1%. Moreover, the growth inhibition was found to be 34.8% in assay [2] and 57.4% in assay [3].
In the same order, the values of `C=C(C)[C@H]1Cc2c(ccc3c2O[C@@H]2COc4cc(OC)c(OC)cc4[C@@H]2C3=O)O1` [Rotenone] are 25.8%, 28.7% and 36.4%.
In the same order, the values of `N=C(N)NN` [Aminoguanidine hemisulfate] are 51.9%, 37.9% and 58.5%.
In the same order, the values of `Cn1cnc(CCN)c1` [1-Methylhistamine dihydrochloride] are 49%, 44.7% and 66.2%.
For the molecule `C[N+]1(C)CCN(c2ccccc2)CC1` [1,1-Dimethyl-4-phenyl-piperazinium iodide], the general growth inhibition in assay [1] was determined as 15.8%. Further, the growth inhibition stood at 37.3% in assay [2] and 53% in assay [3].
In assay [1], `COc1cc([C@@H]2c3cc4c(cc3[C@H](O)[C@H]3COC(=O)[C@H]23)OCO4)cc(OC)c1OC` [Podophyllotoxin] had a general growth inhibition of 38.5%. The figures for the growth inhibition in assay [2] and in assay [3] were 39.7% and 74.2%, respectively.
In the same order, the values of `COc1ccc2c(c1O)-c1cccc3c1[C@@H](C2)N(C)CC3` [R(-)-Apocodeine hydrochloride] are 30.3%, 38.7% and 55.7%.
